{"source": "patent US20210002725A1", "about": "“METHODS FOR THE DIAGNOSIS OF METABOLIC DISORDERS USING EPIMETABOLIC SHIFTERS, MULTIDIMENSIONAL INTRACELLULAR MOLECULES, OR ENVIRONMENTAL INFLUENCES” (Berg LLC, priority 2009, published 2021)", "tested_on": "SK-MEL-28 mitochondria", "experiment": "LC-MS/MS quantification of Q10 and Q10H2 in mitochondrial enriched samples", "type": "cell-based", "conditions": "100 μM Q10 in the media, 6 hr", "protocol": "Ten μl of each sample was injected."}
{"compound": "COC1=C(OC)C(=O)C(C/C=C(\\C)CC/C=C(\\C)CC/C=C(\\C)CC/C=C(\\C)CC/C=C(\\C)CC/C=C(\\C)CC/C=C(\\C)CC/C=C(\\C)CC/C=C(\\C)CCC=C(C)C)=C(C)C1=O", "note": "[Q10, Coenzyme Q10]", "values": [{"measurement": "Q9 in mitochondrial enriched sample", "value": "028", "unit": "ng/Sample"}]}
